Experimental findings from US6524805B1 (priority 1997, dated 2003) are described below.

For orientation: IC50 means the concentration that gives 50% inhibition.

SMILES strings stand for the structures.

This assay has as its system estrogen surface receptor (ESR1). Kind of assay: Intracellular calcium (fura-2) in human arterial endothelial cells, estrogen compounds. In kind it is cell-based. To be noted: read-out: IC50 value; stated with the [Ca^2+]i results, against 17β-estradiol. On the procedure: Human arterial endothelial cells were purchased from Cell Systems (Eugene, Oregon) and grown at 37° C., 5% CO2 in chamber slides (Nunc Int.) with CS-C medium (Cell Systems) supplemented with 10% fetal calf serum and endothelial growth factor. Intracellular calcium levels were measured by dual emission microfluorimetry using the fluorescent dye fura-2/AM. Cells were loaded with the fluorescent ion indicator as follows. […] Cells were washed twice with PBS and then test drugs were added. […] Experiments were carried out at room temperature in PBS without calcium/magnesium. Receptor antagonists, when used, were administered 2 minutes prior to the respective agonist.
Intracellular calcium levels in human arterial endothelial cells were monitored as described herein for the mu3 studies.
(In general: Calcium flux is commonly read through the fluorescence of an indicator in the cells.)

For `CC/C(=C(\c1ccccc1)c1ccc(OCCN(C)C)cc1)c1ccccc1` [Tamoxifen], the IC50 was found to be 0.8 nM.
